Source: PMC10143413
No constants are given. Whether binding was seen depends on the method and setting. Binding seen in cells or lysates may run through a third protein. A yes stands for co-enrichment or nearness to the bait. Other partners may have been found.

The chains behind the UniProt entries cited, without tags or fusion partners. Residues count along the entry.
UniProt P11974: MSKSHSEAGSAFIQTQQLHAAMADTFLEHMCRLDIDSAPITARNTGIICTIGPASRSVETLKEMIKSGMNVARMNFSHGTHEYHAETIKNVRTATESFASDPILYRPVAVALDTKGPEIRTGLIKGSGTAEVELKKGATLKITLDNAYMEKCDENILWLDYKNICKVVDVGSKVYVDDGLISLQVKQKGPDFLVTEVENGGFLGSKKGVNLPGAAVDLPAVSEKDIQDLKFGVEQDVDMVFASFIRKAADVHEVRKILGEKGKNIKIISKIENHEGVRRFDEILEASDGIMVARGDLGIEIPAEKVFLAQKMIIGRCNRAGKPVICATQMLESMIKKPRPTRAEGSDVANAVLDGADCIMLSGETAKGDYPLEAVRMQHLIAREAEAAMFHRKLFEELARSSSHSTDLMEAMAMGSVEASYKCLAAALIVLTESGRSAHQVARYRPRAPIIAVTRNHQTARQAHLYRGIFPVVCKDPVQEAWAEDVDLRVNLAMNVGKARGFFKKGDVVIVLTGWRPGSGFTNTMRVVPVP
UniProt P63101: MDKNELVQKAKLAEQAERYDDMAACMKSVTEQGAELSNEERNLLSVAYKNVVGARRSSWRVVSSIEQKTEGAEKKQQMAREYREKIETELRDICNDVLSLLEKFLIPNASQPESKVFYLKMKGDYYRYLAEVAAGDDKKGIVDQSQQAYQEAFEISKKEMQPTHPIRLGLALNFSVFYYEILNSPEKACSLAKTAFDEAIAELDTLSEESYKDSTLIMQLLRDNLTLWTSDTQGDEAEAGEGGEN
UniProt P57780: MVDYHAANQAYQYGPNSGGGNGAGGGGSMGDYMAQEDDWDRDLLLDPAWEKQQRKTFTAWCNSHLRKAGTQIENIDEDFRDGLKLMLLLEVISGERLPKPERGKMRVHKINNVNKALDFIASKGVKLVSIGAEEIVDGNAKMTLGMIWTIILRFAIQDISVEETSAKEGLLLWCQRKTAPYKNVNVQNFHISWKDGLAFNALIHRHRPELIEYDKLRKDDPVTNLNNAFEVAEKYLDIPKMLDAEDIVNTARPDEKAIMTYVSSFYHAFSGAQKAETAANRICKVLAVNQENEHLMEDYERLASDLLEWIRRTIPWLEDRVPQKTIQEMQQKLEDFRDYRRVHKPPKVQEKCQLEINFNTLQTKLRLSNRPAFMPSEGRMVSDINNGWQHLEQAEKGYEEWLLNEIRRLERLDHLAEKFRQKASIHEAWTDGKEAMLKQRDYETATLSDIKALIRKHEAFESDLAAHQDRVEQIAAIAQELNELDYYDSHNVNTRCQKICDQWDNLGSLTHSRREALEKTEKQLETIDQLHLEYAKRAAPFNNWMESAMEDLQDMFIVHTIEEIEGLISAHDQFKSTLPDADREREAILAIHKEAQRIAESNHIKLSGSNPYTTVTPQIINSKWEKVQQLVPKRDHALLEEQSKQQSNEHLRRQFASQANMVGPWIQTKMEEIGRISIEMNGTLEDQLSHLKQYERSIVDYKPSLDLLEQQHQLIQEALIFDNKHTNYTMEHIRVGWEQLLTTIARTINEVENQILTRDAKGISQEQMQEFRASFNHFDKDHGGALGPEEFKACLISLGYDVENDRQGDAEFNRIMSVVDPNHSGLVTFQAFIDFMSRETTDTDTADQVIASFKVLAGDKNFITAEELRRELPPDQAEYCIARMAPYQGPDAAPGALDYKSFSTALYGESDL
UniProt P63038, residues 27-573: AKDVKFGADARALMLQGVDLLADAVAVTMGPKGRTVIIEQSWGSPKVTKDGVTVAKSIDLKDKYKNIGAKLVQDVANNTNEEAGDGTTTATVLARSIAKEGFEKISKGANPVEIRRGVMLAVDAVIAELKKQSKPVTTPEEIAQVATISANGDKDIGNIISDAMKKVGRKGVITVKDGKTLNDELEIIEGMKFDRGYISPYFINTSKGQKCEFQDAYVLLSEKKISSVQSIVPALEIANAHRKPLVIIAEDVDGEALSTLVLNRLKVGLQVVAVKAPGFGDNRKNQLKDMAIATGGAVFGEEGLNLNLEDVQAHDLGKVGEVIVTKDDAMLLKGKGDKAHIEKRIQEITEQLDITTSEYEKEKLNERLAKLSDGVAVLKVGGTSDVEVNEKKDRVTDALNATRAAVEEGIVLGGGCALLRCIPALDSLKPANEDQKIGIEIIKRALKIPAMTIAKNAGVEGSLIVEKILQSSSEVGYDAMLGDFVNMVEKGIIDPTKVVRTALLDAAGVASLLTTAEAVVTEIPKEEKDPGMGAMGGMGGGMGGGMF
UniProt P68372: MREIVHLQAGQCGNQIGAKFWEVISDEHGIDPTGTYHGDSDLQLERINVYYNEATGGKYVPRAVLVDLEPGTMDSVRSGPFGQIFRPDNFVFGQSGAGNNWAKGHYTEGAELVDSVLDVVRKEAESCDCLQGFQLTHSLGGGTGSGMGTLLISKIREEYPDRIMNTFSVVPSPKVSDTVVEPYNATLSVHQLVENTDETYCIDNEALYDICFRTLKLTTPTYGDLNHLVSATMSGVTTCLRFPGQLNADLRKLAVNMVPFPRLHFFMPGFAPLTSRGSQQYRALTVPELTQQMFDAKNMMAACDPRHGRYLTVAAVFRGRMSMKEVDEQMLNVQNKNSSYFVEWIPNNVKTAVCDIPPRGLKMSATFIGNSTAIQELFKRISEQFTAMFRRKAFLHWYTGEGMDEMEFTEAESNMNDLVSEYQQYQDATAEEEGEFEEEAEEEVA
UniProt Q9QUM9: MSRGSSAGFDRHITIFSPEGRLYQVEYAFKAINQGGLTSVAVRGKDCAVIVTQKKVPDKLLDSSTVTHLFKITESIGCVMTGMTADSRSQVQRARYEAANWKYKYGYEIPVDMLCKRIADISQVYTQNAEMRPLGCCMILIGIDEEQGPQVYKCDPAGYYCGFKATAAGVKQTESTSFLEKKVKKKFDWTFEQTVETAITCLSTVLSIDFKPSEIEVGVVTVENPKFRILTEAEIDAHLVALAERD
UniProt P63242: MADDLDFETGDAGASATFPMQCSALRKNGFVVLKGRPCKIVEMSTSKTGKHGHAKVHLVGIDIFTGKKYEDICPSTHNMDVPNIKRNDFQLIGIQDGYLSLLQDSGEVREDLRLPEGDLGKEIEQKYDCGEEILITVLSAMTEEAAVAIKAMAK
UniProt Q61937: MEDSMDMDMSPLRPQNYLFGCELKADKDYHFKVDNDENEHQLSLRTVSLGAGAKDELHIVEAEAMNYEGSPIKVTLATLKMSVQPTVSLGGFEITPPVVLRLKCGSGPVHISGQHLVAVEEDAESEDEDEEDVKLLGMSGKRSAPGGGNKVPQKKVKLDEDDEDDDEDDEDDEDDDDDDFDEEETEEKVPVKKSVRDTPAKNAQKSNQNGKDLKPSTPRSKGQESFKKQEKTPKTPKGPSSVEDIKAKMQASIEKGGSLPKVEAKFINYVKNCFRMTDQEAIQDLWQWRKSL

Biological target: Pyruvate kinase PKM1, purified from rabbit skeletal muscle (rabbit) (UniProt P11974)
Test: affinity purification with mass spectrometry; rabbit muscle PKM1 immobilised on CNBr-activated Sepharose 4B; cleared Triton X-100 lysate of mouse brain homogenate (6 mg/mL protein) in 0.05 M potassium phosphate pH 7.4, overnight at 4 °C; washed with 100 volumes of buffer; eluted with 0.1 M glycine pH 2.8, 3 M NaCl; LC-MS/MS; only the target purified

| binding | Substance |
| --- | --- |
| binds | 14-3-3 protein zeta/delta (mouse brain) (from UniProt P63101 1-245) |
| binds | Heterogeneous nuclear ribonucleoprotein K (mouse brain) (from UniProt P61979 1-463) |
| binds | Alpha-actinin-4 (mouse brain) (from UniProt P57780 1-912) |
| binds | 60 kDa heat shock protein, mitochondrial (mouse brain) (from UniProt P63038 27-573) |
| binds | Tubulin beta-4B chain (mouse brain) (from UniProt P68372 1-445) |
| binds | Proteasome subunit alpha type-6 (mouse brain) (from UniProt Q9QUM9 1-246) |
| binds | Eukaryotic translation initiation factor 5A-1 (mouse brain) (from UniProt P63242 1-154) |
| binds | Nucleophosmin (mouse brain) (from UniProt Q61937 1-292) |
